Data as given in PMC10632352, “Nde1 promotes Lis1-mediated activation of dynein” (Nature Communications, 2023).
No constants are given. Whether binding was seen depends on the method and setting.

Columns and labels:
[1] = target: T1, mtLis1 (dynein-binding mutant of Lis1, R316A and W340A) (human) (UniProt P43034); assay: mass photometry; proteins diluted to 5–20 nM in 30 mM HEPES pH 7.4, 5 mM MgSO4, 1 mM EGTA, 10% glycerol; Refeyn TwoMP; profiles fitted to multiple Gaussians; both purified
T1 sequence (chain, LD555, or Alexa488 and biotin, on the SNAP tag in the colocalization assays): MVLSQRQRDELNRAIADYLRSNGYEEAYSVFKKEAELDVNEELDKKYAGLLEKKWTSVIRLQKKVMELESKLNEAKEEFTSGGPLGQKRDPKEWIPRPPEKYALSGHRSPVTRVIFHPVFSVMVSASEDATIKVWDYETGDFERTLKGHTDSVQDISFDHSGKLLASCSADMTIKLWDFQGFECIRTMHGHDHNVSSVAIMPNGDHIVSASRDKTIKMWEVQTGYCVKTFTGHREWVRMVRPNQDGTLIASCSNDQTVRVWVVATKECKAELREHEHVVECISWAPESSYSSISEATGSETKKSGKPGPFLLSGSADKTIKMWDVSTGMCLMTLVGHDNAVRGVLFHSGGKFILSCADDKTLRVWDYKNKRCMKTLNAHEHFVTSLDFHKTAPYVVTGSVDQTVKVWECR

Lis1^83–410 (human) = target: T2, Lis1^83–410 (human) (UniProt P43034); assay: as above
T2 sequence: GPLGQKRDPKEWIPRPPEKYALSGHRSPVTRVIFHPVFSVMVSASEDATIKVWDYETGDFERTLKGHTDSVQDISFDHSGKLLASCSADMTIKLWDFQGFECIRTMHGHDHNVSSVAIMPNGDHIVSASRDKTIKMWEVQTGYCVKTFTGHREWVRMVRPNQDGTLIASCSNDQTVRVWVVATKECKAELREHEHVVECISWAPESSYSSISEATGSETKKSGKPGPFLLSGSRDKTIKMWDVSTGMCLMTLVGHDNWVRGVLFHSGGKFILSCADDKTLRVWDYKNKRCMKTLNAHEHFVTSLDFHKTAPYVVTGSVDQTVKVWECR

[2] = target: T1, mtLis1 (dynein-binding mutant of Lis1, R316A and W340A) (human); assay: co-IP; purified proteins mixed in MB buffer with 5 mg/ml BSA and 150 mM NaCl, GFP-Trap beads, 1 h on ice; fluorescence of labelled proteins on a denaturing gel; which protein carried GFP is not told; both purified

Row | Binder | binding [1] | binding (Lis1^83–410 (human)) | binding [2]
1 | α2 subunit of platelet activator factor acetylhydrolase 1B (PAF-AH1B) (enzyme, UniProt P68402 1-229, Alexa488 in the analytical SEC; a dye in the colocalization assay) MSQGDSNPAAIPHAAEDIQGDDRWMSQHNRFVLDCKDKEPDVLFVGDSMVQLMQQYEIWRELFSPLHALNFGIGGDTTRHVLWRLKNGELENIKPKVIVVWVGTNNHENTAEEVAGGIEAIVQLINTRQPQAKIIVLGLLPRGEKPNPLRQKNAKVNQLLKVSLPKLANVQLLDTDGGFVHSDGAISCHDMFDFLHLTGGGYAKICKPLHELIMQLLEETPEEKQTTIA | no binding (tested: 5–20 nM) | – | –
2 | Lis1^83–410 (domain or fragment, UniProt P43034 83-410) GPLGQKRDPKEWIPRPPEKYALSGHRSPVTRVIFHPVFSVMVSASEDATIKVWDYETGDFERTLKGHTDSVQDISFDHSGKLLASCSADMTIKLWDFQGFECIRTMHGHDHNVSSVAIMPNGDHIVSASRDKTIKMWEVQTGYCVKTFTGHREWVRMVRPNQDGTLIASCSNDQTVRVWVVATKECKAELREHEHVVECISWAPESSYSSISEATGSETKKSGKPGPFLLSGSRDKTIKMWDVSTGMCLMTLVGHDNWVRGVLFHSGGKFILSCADDKTLRVWDYKNKRCMKTLNAHEHFVTSLDFHKTAPYVVTGSVDQTVKVWECR | – | no binding (tested: 5–20 nM) | –
3 | human Nde1 (natural protein, UniProt Q9NXR1 1-335, looked up, LD655 or LD555 dye where labelled, Nde1, human; Labelled through a SNAP or a ybbR tag; also called full-length Nde1; WT Nde1; source: Sf9 (baculovirus, pOmniBac), purified (IgG Sepharose, TEV elution, Superdex 200 Increase SEC)) MEDSGKTFSSEEEEANYWKDLAMTYKQRAENTQEELREFQEGSREYEAELETQLQQIETRNRDLLSENNRLRMELETIKEKFEVQHSEGYRQISALEDDLAQTKAIKDQLQKYIRELEQANDDLERAKRATIMSLEDFEQRLNQAIERNAFLESELDEKENLLESVQRLKDEARDLRQELAVQQKQEKPRTPMPSSVEAERTDTAVQATGSVPSTPIAHRGPSSSLNTPGSFRRGLDDSTGGTPLTPAARISALNIVGDLLRKVGALESKLASCRNLVYDQSPNRTGGPASGRSSKNRDGGERRPSSTSVPLGDKGLDTSCRWLSKSTTRSSSSC | – | – | no binding
4 | Nde1^1–190 (N-terminus of human Nde1) (domain or fragment, UniProt Q9NXR1 1-190, looked up, LD555 dye in the analytical SEC, Nde1, human, N-terminal coiled-coil, residues 1-190 (C-terminus truncated); also called Nde1^1–190-LD555; source: Sf9 (baculovirus, pOmniBac), purified (IgG Sepharose, TEV elution, Superdex 200 Increase SEC)) MEDSGKTFSSEEEEANYWKDLAMTYKQRAENTQEELREFQEGSREYEAELETQLQQIETRNRDLLSENNRLRMELETIKEKFEVQHSEGYRQISALEDDLAQTKAIKDQLQKYIRELEQANDDLERAKRATIMSLEDFEQRLNQAIERNAFLESELDEKENLLESVQRLKDEARDLRQELAVQQKQEKPR | no binding (tested: 5–20 nM) | no binding (tested: 5–20 nM) | –
